Results are given in words; binding and its absence hold for the method and conditions named. In cells and extracts the contact can be indirect. Some results given as binding are weak or reduced against the parent protein; the word gives no strength.
B1: High Mobility Group Box 2 (HMGB2), endogenous in HEK293 (protein, UniProt P26583 1-209)
chain: MGKGDPNKPRGKMSSYAFFVQTCREEHKKKHPDSSVNFAEFSKKCSERWKTMSAKEKSKFEDMAKSDKARYDREMKNYVPPKGDKKGKKKDPNAPKRPPSAFFLFCSEHRPKIKSEHPGLSIGDTAKKLGEMWSEQSAKDKQPYEQKAAKLKEKYEKDIAAYRAKGKSEAGKKGPGRPTGSKKKNEPEDEEEEEEEEDEDEEEEDEDEE
B2: High Mobility Group Box 2 (HMGB2), endogenous in human temporal arteries (protein, UniProt P26583 1-209)
chain: B1 chain

Amino acid sequences for entries named in this document (tags omitted).
UniProt Q8WWM9: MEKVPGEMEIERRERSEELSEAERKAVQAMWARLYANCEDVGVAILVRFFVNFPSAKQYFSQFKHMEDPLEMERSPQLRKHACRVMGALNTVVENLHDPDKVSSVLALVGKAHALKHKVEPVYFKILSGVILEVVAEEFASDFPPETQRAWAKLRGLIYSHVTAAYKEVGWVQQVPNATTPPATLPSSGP

What was measured:
[1] = biological target: human cytoglobin (hCYGB), stably expressed in HEK293 (human) (UniProt Q8WWM9); experiment: proximity ligation
[2] = biological target: cytoglobin, endogenous in human temporal arteries (human (endogenous in temporal artery)) (UniProt Q8WWM9); experiment: proximity ligation

| Binder | binding [1] | binding [2] |
| --- | --- | --- |
| B1 | binds | – |
| B2 | – | binds |
